Source: PubChem BioAssay AID686943 (Drosophila RNAi Screening Center, 2013)
The screen tested about 23,000 reagents; below is an unselected part of those with a known target gene and a result. 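Extra replicates exist only for a retested subset of genes; insulin dose and duration not given; both raised and lowered dpERK matter.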 The numbers tell different reagents against one gene apart. Names joined by + are all predicted targets of the reagent. Further read-outs or replicates are left out here. No sequences are given here. Not stated in the record: the amount of reagent, the time to read-out.

Assay: 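Search across the genome for regulators of signalling from receptor tyrosine kinase to ERK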 (primary screen)
Cell system: Drosophila S2R+ haemocyte-like cells expressing YFP-tagged ERK (Rolled)
Knock-down reagent: long dsRNA against Drosophila genes
Conditions: insulin stimulation versus unstimulated cells; dose and duration not given
Read-out: 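Antibody staining for doubly phosphorylated ERK divided by ERK-YFP signal, as plate z-scores, in insulin-treated and untreated cells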
Direction: replicate 1, z-score of dpERK with insulin and replicate 2, z-score of dpERK with insulin: higher = more active ERK per ERK-YFP after insulin

target | reagent | replicate 1, z-score of dpERK with insulin | replicate 2, z-score of dpERK with insulin
laza | 1 | 0.46 | -0.21
Diedel | 1 | -0.61 | -0.02
Cpr47Eg | 1 | -0.8 | -0.43
mst | 1 | 0.06 | -0.14
TORIP | 1 | 0.04 | -0.39
Parp16 | 1 | 1.11 | 0.77
CNMaR | 1 | 0.51 | 0.16
CNMaR | 2 | -0.06 | 0.67
alpha-Man-Ia | 1 | -1.67 | 0.78
alpha-Man-Ia | 2 | -0.27 | -0.17
alpha-Man-Ia | 3 | 0.19 | 0.41
alpha-Man-Ia | 4 | 0.81 | 0.11
Cpr72Ec | 1 | 0.93 | 0.41
Strn-Mlck | 1 | 0.4 | -0.64
Strn-Mlck | 2 | -0.09 | -0.26
Strn-Mlck | 3 | -0.67 | -1
Strn-Mlck | 4 | -0.68 | 1.38
Skel | 1 | 0.06 | 0.12
Skel | 2 | 0.32 | 0.26
CG8319 | 1 | -0.18 | -0.52
phtf | 1 | 0.46 | 0.09
CG12992 | 1 | 0.45 | 1.4
HLH4C | 1 | 0.65 | -0.86
HLH4C | 2 | 0.47 | 0.46
scat | 1 | 0.17 | 0.27
ATPsynCF6 | 1 | 0 | -0.24
Efhc1.1 | 1 | -1.14 | -0.6
Hyccin | 1 | 0.02 | -0.09
CG13337 | 1 | -0.34 | 0.43
piwi | 1 | -0.31 | -0.71
Not1 | 1 | -1.61 | -2.33
Not1 | 2 | -3.32 | -2.09
CG31321 | 1 | -0.59 | -0.08
dpr13 | 1 | -0.29 | -1.04
dpr13 | 2 | 0.15 | -0.21
slmb | 1 | 0.13 | 0.67
Chmp1 | 1 | -0.26 | -1.08
CG6435 | 1 | -0.4 | 1.55
Opbp | 1 | 0.05 | -0.3
CG3556 | 1 | 1 | 0.75
CkIIalpha | 1 | -1.53 | -0.66
b | 1 | 0.48 | 0.89
cg | 1 | -5.99 | -4.05
CG33757 | 1 | 0.34 | -0.36
CG14655 | 1 | -0.2 | 0.04
Nplp1 | 1 | -0.17 | 0.28
Tbc1d22 | 1 | 0.39 | 0.11
Gr32a | 1 | 0.78 | 0.65
B52 | 1 | 0.39 | 0.05
CG5639 | 1 | 0.24 | -1.44
cib | 1 | 0.55 | 0.12
HP1Lcsd | 1 | 0.52 | 0.26
Brf | 1 | -0.13 | 0.97
Brf | 2 | 0.53 | -0.13
Brf | 3 | -0.05 | 0.04
TwdlZ | 1 | -0.1 | -0.15
CG11756 | 1 | 0.02 | -0.18
CG34429 | 1 | -0.34 | -0.17
croc | 1 | 0.46 | 0.88
Flad1 | 1 | 0.64 | 0.39
Akr1B | 1 | 0.19 | 0.71
bcd + CR14578 | 1 | -0.24 | 0.53
Tep4 | 1 | -0.18 | -1.28
mRpL32 | 1 | 5.72 | -1.21
Spf30 | 1 | -0.45 | 0.97
coro | 1 | -0.55 | -0.15
coro | 2 | 0.51 | 0.31
heca | 1 | -1 | -0.39
Peritrophin-A | 1 | 0.32 | 0.13
CG8176 | 1 | -0.09 | 0.05
CG34423 + Mthfs | 1 | -0.05 | -0.39
Or49a | 1 | -0.07 | 0.44
lncRNA:mimi | 1 | 0.87 | -0.28

Part of the list above, reduced to “replicate 1, z-score of dpERK with insulin”.
Parp16: 1.11
CNMaR #1: 0.51
CNMaR #2: -0.06
alpha-Man-Ia #1: -1.67
alpha-Man-Ia #2: -0.27
alpha-Man-Ia #3: 0.19
alpha-Man-Ia #4: 0.81
Cpr72Ec: 0.93
Strn-Mlck #1: 0.4
Strn-Mlck #2: -0.09
